The text below walks through data of publication PMC6497666.

By UniProt entry, the sequences of proteins in these tests, tags left out. Residues count along the entry.
UniProt P62328: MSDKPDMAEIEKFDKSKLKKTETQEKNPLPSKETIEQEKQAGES
NPHP3 (nephronophthisis 3) prey #1, aa 69-223, GAL4-AD fusion (Q7Z494, residues 69-223): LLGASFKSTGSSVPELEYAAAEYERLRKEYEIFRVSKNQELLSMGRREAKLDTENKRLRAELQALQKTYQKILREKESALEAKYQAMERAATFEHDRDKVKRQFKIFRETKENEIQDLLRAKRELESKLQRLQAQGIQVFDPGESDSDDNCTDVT
NPHP3 (nephronophthisis 3) prey #2~#10, aa 89-223, GAL4-AD fusion (Q7Z494, residues 89-223): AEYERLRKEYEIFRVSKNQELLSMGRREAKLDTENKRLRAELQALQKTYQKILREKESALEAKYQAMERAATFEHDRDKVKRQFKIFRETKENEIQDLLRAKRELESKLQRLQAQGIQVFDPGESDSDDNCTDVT

No constants are given. Whether binding was seen depends on the method and setting. Some entries that bind do so weakly or less than the wild type.

The assay has as its target GAL4 DNA-binding domain (BD)-fused Tβ4 (Thymosin β-4) bait (human) (UniProt P62328). Briefly: two-hybrid; GAL4-BD-Tβ4 bait (pGBKT) against human thymus cDNA GAL4-AD library (pACT2) in yeast PBN204; reporters URA3, ADE2, lacZ; preys re-introduced with bait and confirmed on SD-LWU and SD-LWA.

Take “NPHP3 (nephronophthisis 3) prey #1, aa 69-223, GAL4-AD fusion (from UniProt Q7Z494-1 69-223) (domain or fragment)”: the binding entry is on record as “binds”.

On to “NPHP3 (nephronophthisis 3) prey #2~#10, aa 89-223, GAL4-AD fusion (from UniProt Q7Z494-1 89-223) (domain or fragment)”, for which the binding entry is given as “binds”.
